Results from US20220184096A1, “APPLICATIONS OF IMINOSTILBENE IN TERMS OF PREVENTING AND TREATING CARDIAC CEREBRAL ISCHEMIA/REPERFUSION INJURY” (CHINESE ACADEMY OF MEDICAL SCIENCES INSTITUTE OF MEDICINAL …, priority 2019, published 2022).
At least one structure is not confirmed: it was looked up by name or label, or the drawing left a doubt.

Columns and labels:
Format in all cases: in vivo, rat
[1] = tested on: rats suffered from myocardial ischemia-reperfusion injury; assay: Pathological changes of cardiac tissue (hematoxylin-eosin staining) in myocardial ischemia-reperfusion rats; conditions: ISB groups compared with model group; HE staining
[2] = tested on: rats suffered from myocardial ischemia-reperfusion injury; assay: Serum myocardial enzymes (CK, LDH, AST) in myocardial ischemia-reperfusion rats; conditions: reperfusion 24 h, ISB groups compared with I/R group
[3] = tested on: rats suffered from myocardial ischemia-reperfusion injury; assay: Myocardial apoptosis (TUNEL staining) in myocardial ischemia-reperfusion rats; conditions: ISB groups versus IR group; TUNEL staining of heart sections
[4] = tested on: rats suffered from cerebral ischemia-reperfusion injury; assay: Cerebral infarction area (TTC staining) in rats suffered from cerebral ischemia-reperfusion injury (MCAO model); conditions: after administration of ISB for 3 days (5, 10 mg/kg via gavage), ischemia 30 min, reperfusion 24 h
[5] = tested on: rats suffered from myocardial ischemia-reperfusion injury; assay: Cardiac function by ultrasound imaging (LVEF, LVFS) in myocardial ischemia-reperfusion rats; conditions: ISB groups, 7 days after reperfusion
[6] = tested on: rats suffered from myocardial ischemia-reperfusion injury; assay: Myocardial infarction area (TTC staining) in rats suffered from myocardial ischemia-reperfusion injury; conditions: I/R+ISB 0.625, 1.25 mg/kg via gavage for 3 days prior to surgery; ischemia 30 min, reperfusion 24 h; compared to I/R group

## C1=Cc2ccccc2Nc2ccccc21 [ISB, Iminostilbene]
[1]
  inflammatory cell infiltration of cardiac tissue: decreased
  intercellular space of cardiac tissue: decreased
[2]
  leakage of AST: significantly reduced
  leakage of CK: significantly reduced
  leakage of LDH: significantly reduced
[3]
  Tunel positive myocardial cells: significantly reduced
[4]
  Cerebral infarction area: significantly reduced
[5]
  EF: increased significantly
  FS: increased significantly
[6]
  myocardial tissue infarct area: significantly improved
